Data reported in the supplement of paper PMC12823440, “Inhibitors supercharge kinase turnover through native proteolytic circuits” (Nature, 2025).
Counter-ions that a name gives are not always drawn. This is one part of the list. Hit calls seldom repeat between salt and free forms of one compound.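 Kinases, fused to nanoluciferase, were expressed in K562 cells; luminescence was measured every 4 h from 2 to 18 h as percent of control (DMSO = 100%, positive control = 0%). A time point is decreased if signal falls significantly (2 sigma). Hits were called by the authors by a rule that is not shown; the count of time points alone does not decide it.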

Protein sequences, listed by entry. Tags and fused reporters are not part of them.
UniProt P49137, whole entry, looked up: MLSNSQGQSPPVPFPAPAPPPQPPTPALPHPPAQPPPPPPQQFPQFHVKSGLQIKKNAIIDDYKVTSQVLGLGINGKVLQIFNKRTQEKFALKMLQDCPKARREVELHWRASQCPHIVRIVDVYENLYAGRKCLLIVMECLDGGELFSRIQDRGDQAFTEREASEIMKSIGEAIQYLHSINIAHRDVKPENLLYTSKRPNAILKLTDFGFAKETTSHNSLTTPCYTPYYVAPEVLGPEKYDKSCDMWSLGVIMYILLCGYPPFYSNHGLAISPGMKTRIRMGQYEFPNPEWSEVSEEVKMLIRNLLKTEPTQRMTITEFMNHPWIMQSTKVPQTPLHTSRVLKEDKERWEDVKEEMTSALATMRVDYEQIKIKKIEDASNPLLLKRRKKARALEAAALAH

Target: MAPKAPK2 (UniProt P49137)
Assay: kinase-Nluc reporter destabilization hit call (1 = scored as downregulated) (binary); higher = compound decreases kinase abundance
Settings: K562; 2-18 h

kinase-Nluc reporter destabilization hit call, inactive:
CC(=O)Nc1nc(C)c(-c2nc(N3CCCC(O)C3)no2)s1 (stereo not drawn) (10 µM) 0
CCc1ccc(C(=O)COc2ccc(CC3SC(=O)NC3=O)cc2)nc1 (stereo not drawn) (10 µM) 0
NC(=O)c1ccc(-c2cnn3ccc(NCc4cccnc4)nc23)cc1 (2.5 µM) 0
Nc1[nH]c(=O)nc2c1ncn2[C@@H]1O[C@H](CO)[C@@H](O)[C@H]1O [Crotonoside] (10 µM) 0
CC1(COc2ccc3c(c2)ncn3-c2ccc3cccc(N4CCC(N)CC4)c3n2)COC1 [Crenolanib] (2.5 µM) 0
CSc1ccc(CN2CCCC(Nc3ccc4[nH]ncc4c3)C2)cc1 (stereo not drawn) [Rho-Kinase-IN-1] (10 µM) 0
N=C(N)NC(=N)NCCc1ccccc1 [Phenformin (hydrochloride)] (10 µM) 0
C=C(F)C(=O)N1CCN(c2nc(OC[C@@H]3CCCN3C)nc3c2CCN(c2cccc4cccc(Cl)c24)C3)C[C@@H]1CC#N (2.5 µM) 0

Random excerpt: two compounds from above
kinase-Nluc reporter destabilization hit call, inactive:
Nc1[nH]c(=O)nc2c1ncn2[C@@H]1O[C@H](CO)[C@@H](O)[C@H]1O [Crotonoside] (10 µM) 0
CC1(COc2ccc3c(c2)ncn3-c2ccc3cccc(N4CCC(N)CC4)c3n2)COC1 [Crenolanib] (2.5 µM) 0
